Data published in patent US20210261642A1, “SOLUBILITY OF GLP-1 PEPTIDE” (Novo Nordisk A/S, priority 2017, published 2021).
At least one compound was matched to its structure with a doubt left.

Assay: Assay (I): Determination of Solubility (96-well plate, pH 3.0-11.0, organic solvent 0-70% w/w, UV absorption at 280 nm)
Assay type: physicochemical
Settings: presence of organic solvent (MeCN or DMF) at certain conditions; summary of Tables 3a and 3b
Protocol: Assay (I): Determination of Solubility
96-Well Plate Preparation
96-well plates containing target peptide in a solid form were prepared in one of two ways:
Method 1 (evaporation): Addition of 100 μl stock solution of said peptide at a concentration of 4-6 mg/ml to each well of a 96-well half area plate (150 μl well size). Subsequently the solvent was evaporated by applying a vacuum until the solvent was completely removed.
Method 2 (precipitation): Addition of a certain volume of a stock solution of said peptide containing to each well of a 96-well half area plate followed by the addition of a certain volume of concentrated phosphoric acid to obtain a pH of 4.6 followed by addition of a certain volume of ethanol resulting in a final ethanol concentration of 20% v/v. Subsequently the plate was stored at 4° C. for 1 h and then centrifuged at 4,000 rpm for 20 min. Finally the supernatant was removed. […]
After preparing the 96 different solvent systems, 100 μl of each system was transferred to the 96-well plate containing the solid form of the target peptide (prepared as described in the section “96-well plate preparation”). […] The samples were then analysed by UV absorption at 280 nm for peptide quantification. […]
Solubility of liraglutide was determined using Assay (I) described herein. […]

## CCCCCCCCCCCCCCCC(=O)N[C@@H](CCC(=O)NCCCC[C@H](NC(=O)[C@H](C)NC(=O)[C@H](C)NC(=O)[C@H](CCC(N)=O)NC(=O)CNC(=O)[C@H](CCC(=O)O)NC(=O)[C@H](CC(C)C)NC(=O)[C@H](Cc1ccc(O)cc1)NC(=O)[C@H](CO)NC(=O)[C@H](CO)NC(=O)[C@@H](NC(=O)[C@H](CC(=O)O)NC(=O)[C@H](CO)NC(=O)[C@@H](NC(=O)[C@H](Cc1ccccc1)NC(=O)[C@@H](NC(=O)CNC(=O)[C@H](CCC(=O)O)NC(=O)[C@H](C)NC(=O)[C@@H](N)Cc1cnc[nH]1)[C@@H](C)O)[C@@H](C)O)C(C)C)C(=O)N[C@@H](CCC(=O)O)C(=O)N[C@@H](Cc1ccccc1)C(=O)N[C@H](C(=O)N[C@@H](C)C(=O)N[C@@H](Cc1c[nH]c2ccccc12)C(=O)N[C@@H](CC(C)C)C(=O)N[C@H](C(=O)N[C@@H](CCCNC(=N)N)C(=O)NCC(=O)N[C@@H](CCCNC(=N)N)C(=O)NCC(=O)O)C(C)C)[C@@H](C)CC)C(=O)O [liraglutide, Arg34,Lys26-(N-epsilon-(gamma-L-glutamyl(N-alfa-hexadecanoyl)))-GLP-1(7-37)]
  amount of dissolved GLP-1 peptide: increases the amount of dissolved GLP-1 peptide
